Values of other authors in US10662445B2, “Process for the production of bio-butanol by fermentation of glycosidic waste matter” (priority 2018, dated 2020).
Some results were stated once for a whole list of compounds, not compound by compound.

Test system: solventogenic Clostridia (ABE fermentation)
Conditions: cited from earlier work

## O=Cc1ccco1 [Furfural, furfural]
  Inhibitory concentration: >2 to 3 g/L
